This passage reports binding signal results from PMC7819943, “Rice protein-binding microarrays: a tool to detect cis-acting elements near promoter regions in rice”.

The other results are listed elsewhere or left out.

The assay addresses T1, OsSMF1 (Oryza sativa, UniProt Q6ZLB0 1-436).
T1 sequence: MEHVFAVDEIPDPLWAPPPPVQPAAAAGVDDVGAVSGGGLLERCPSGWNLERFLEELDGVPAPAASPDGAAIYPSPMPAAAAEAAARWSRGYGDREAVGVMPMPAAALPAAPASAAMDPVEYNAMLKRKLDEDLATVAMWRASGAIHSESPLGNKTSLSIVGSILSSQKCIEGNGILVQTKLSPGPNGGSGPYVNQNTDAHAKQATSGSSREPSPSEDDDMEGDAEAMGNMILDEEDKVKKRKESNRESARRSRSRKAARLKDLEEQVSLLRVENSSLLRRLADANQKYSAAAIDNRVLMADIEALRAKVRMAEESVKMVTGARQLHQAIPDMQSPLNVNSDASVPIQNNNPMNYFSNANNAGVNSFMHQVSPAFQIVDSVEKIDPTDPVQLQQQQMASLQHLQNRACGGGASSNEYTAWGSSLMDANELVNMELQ
In words: protein-binding microarray (RPBM); PBS, 2% BSA, 51.3 ng/ul salmon testes DNA, 50 uM zinc acetate, 200 nM TF, 25 C, 1 h; high values mean tight binding. The conditions noted are these: protein: recombinant; tags: N-terminal polyhistidine and DsRed monomer fusion (pET32a); chain copies: 2; label: CyDye5-dUTP incorporated in the synthesized complementary strand; 3' TTTTT single-stranded linker to array surface; dsDNA, one strand shown. The procedure, abridged:
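The binding signal is fluorescence intensity per feature, in arbitrary units, read on an Axon 4000B scanner. Polyhistidine- and DsRed-tagged transcription factors (N-terminal fusions) from E. coli BL21-CodonPlus were purified on Ni–NTA and applied at 200 nM for 1 h at 25 °C to a double-stranded, BSA-blocked custom Agilent array in buffer with 50 µM zinc acetate.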
On to “GTACTACAGTACGATATTGCACGAGAGAATTCCACGTCAGCGGAGTCACCTAGTGCAG”, for which the binding signal is 26900 fluorescence intensity (a.u.).

With “CGGGCACGTGCCACGACGACGCCCTATCCACCACACTATCCGGAGTCACCTAGTGCAG”, the binding signal is 5810 fluorescence intensity (a.u.). On to “TAATTAGTATACTATGACATCAGTAGATATATTATGACACCGGAGTCACCTAGTGCAG”, for which the binding signal is 3780 fluorescence intensity (a.u.).

As for “AACCCTGTCCACGTCTGCTCGTCGCCATGGCCTCTCGTTCCGGAGTCACCTAGTGCAG”, the binding signal was 9150 fluorescence intensity (a.u.). Then “TACGATGCACGTCATGTTATCCCGACATCATGTGGTTGATCGGAGTCACCTAGTGCAG”, with 7800 fluorescence intensity (a.u.).

For the sequence “AGGCCGGCGACGAACCTCGATCTCGATCCGCTCGCCGCCGCGGAGTCACCTAGTGCAG”, the binding signal is 5070 fluorescence intensity (a.u.). Next, “CCCCGCGCGCGACACGTGTACAGTCGCACGCAGGAGGGTGCGGAGTCACCTAGTGCAG”: 13000 fluorescence intensity (a.u.); “CTTTACATTTTATTTTGTCCACATAACTCCTCTAAATATTCGGAGTCACCTAGTGCAG”: 3470 fluorescence intensity (a.u.).

Turning to “TCACTACTAGTGATGTCATTAGCCTCGAGATGGGTGATATCGGAGTCACCTAGTGCAG”, the binding signal was 4680 fluorescence intensity (a.u.). Then “CATCATGCCCATCCAGCGTGACATCAAAAGCGGCGTCCTACGGAGTCACCTAGTGCAG”, with 3490 fluorescence intensity (a.u.); and “ACGAATCCAACGCCCTTTGTCATCCACCTCGTGTCGCTCGCGGAGTCACCTAGTGCAG”, with 3690 fluorescence intensity (a.u.); and “AGTCATGAGGAGCCCAACTCAGCCCACGTACACCACCTCCCGGAGTCACCTAGTGCAG”, with 5200 fluorescence intensity (a.u.). Next, “TCTATCTTTGACTTGGAAGACAGCTCACTAATACTACCTTCGGAGTCACCTAGTGCAG”: 3310 fluorescence intensity (a.u.); “TTCCAGTCCACCGTGGCGGTGGCGCGTCAGCTTTCCAGCCCGGAGTCACCTAGTGCAG”: 12000 fluorescence intensity (a.u.); “CCCACCCACCCACCCACCACCACGCCACGCCACCACCTCGCGGAGTCACCTAGTGCAG”: 7850 fluorescence intensity (a.u.). “TATCTACTAAGTCTTGACAGCCAAAGTCATGGTTTGGCGACGGAGTCACCTAGTGCAG”: the binding signal was 3920 fluorescence intensity (a.u.). Next, “GTAAGTGACTAAGTGCCACGTTGGTTTGTTGCTGAGCCAACGGAGTCACCTAGTGCAG”: 15700 fluorescence intensity (a.u.). Then “AAGCTATAGAGATCTACATCAATACAATATTATGTGTGTGCGGAGTCACCTAGTGCAG”, with 4040 fluorescence intensity (a.u.); and “CGTCGTCTTCAGCAGCAGCGGCGTCAGCATGCGTCGTCTTCGGAGTCACCTAGTGCAG”, with 5630 fluorescence intensity (a.u.). For “CACCCACCGAGCATCTGTTTGAACCTAGAAATATTGTCTGCGGAGTCACCTAGTGCAG”, the binding signal was 3640 fluorescence intensity (a.u.).

On to “ATTTCATACCAACCGCAACCACGCCACGCCACGCCTCGACCGGAGTCACCTAGTGCAG”, for which the binding signal is 5990 fluorescence intensity (a.u.). Then “AACATGAGTCAAAGCTACTCCATCTTCATGTCCCAATCCCCGGAGTCACCTAGTGCAG”, with 3250 fluorescence intensity (a.u.); and “CGGATCCAACGTGGGTGCATTATTAGGTCATGTTAGTGTCCGGAGTCACCTAGTGCAG”, with 5720 fluorescence intensity (a.u.); and “GACTTTCTCATATTTAACACGTGACTCTCTATTCTTCCACCGGAGTCACCTAGTGCAG”, with 3720 fluorescence intensity (a.u.). Next, “TTAATTAATTAACGTATGTACTCAGGAATTATATATAATACGGAGTCACCTAGTGCAG”: 35600 fluorescence intensity (a.u.); “GCTAACAAGTTGAGGGACCTTGCGTGTACTTTTCCCGCGCCGGAGTCACCTAGTGCAG”: 5430 fluorescence intensity (a.u.). Regarding “CAATAAAGCGATCCTTAATTCCACCGTGTCAACTGGTTTACGGAGTCACCTAGTGCAG”, the binding signal is 4830 fluorescence intensity (a.u.). Next, “AGGATGTTGAGAGGTTCGTGGCACGTTGCACCACTTGTCACGGAGTCACCTAGTGCAG”: 4640 fluorescence intensity (a.u.); “TTATCAATCGCGCAATTTGCAAATACGTCATCCTTTCAAGCGGAGTCACCTAGTGCAG”: 4570 fluorescence intensity (a.u.).

For the sequence “GAGTTCATATCTGACTCTACCTTTGTACACGTCCTAAGCTCGGAGTCACCTAGTGCAG”, the binding signal was 4920 fluorescence intensity (a.u.).

Turning to “ATTCCTGTCACCTTCGACCGACAGCCCCATCATCATTATCCGGAGTCACCTAGTGCAG”, the binding signal was 4410 fluorescence intensity (a.u.). Then “ATACAGGTCCACGCCTCCACGTGACAGGTGCTCGAAGAAGCGGAGTCACCTAGTGCAG”, with 3150 fluorescence intensity (a.u.); and “GCTGGCCGCTGCGGTTTGACCTAGCTGACGTCGCCGCCGCCGGAGTCACCTAGTGCAG”, with 6370 fluorescence intensity (a.u.); and “ACTCGTGACATGAATGGATGCATTCTGTCTGAGACAAGAACGGAGTCACCTAGTGCAG”, with 3360 fluorescence intensity (a.u.). Then “GTGCGCGTGGTAAGGCCTGGGACGTGGGCCAAAGCACCCCCGGAGTCACCTAGTGCAG”, with 4020 fluorescence intensity (a.u.); and “GAGTTGTGACTGTGAGGCACACCAATGGCGGCCCATGGATCGGAGTCACCTAGTGCAG”, with 3740 fluorescence intensity (a.u.); and “GTCCAACGGCATCTGCTCTCACTGACTCACTCATCTCTAGCGGAGTCACCTAGTGCAG”, with 6220 fluorescence intensity (a.u.). With “CCCATCCCAATCACATGGACCACGGCCCGCCACGTAAGCACGGAGTCACCTAGTGCAG”, the binding signal is 17400 fluorescence intensity (a.u.). Next, “TATCCTTCCCCTGGTTATCCTTCGACTGTGGTTATCCGGGCGGAGTCACCTAGTGCAG”: 10600 fluorescence intensity (a.u.).

For “TATATGCCCGTATATACACTCCGCTAACATATGGCATTGACGGAGTCACCTAGTGCAG”, the binding signal was 3840 fluorescence intensity (a.u.). “GGCCTTAGATGAGTCATCCTACTTGTGGCATATATATACCCGGAGTCACCTAGTGCAG”: the binding signal is 8130 fluorescence intensity (a.u.).

For “GCGTCGTCGTCGCCTGCACCGCGGAGGCCGCGCGCGAGGTCGGAGTCACCTAGTGCAG”, the binding signal is 13700 fluorescence intensity (a.u.). Next, “CCGAGTCAATACTGCCACGTAGCGCGCCACGTCAGCGAAACGGAGTCACCTAGTGCAG”: 26300 fluorescence intensity (a.u.). Then “ACCACGAACCTGTTTTGCATTTGACAAATGCCACACACTCCGGAGTCACCTAGTGCAG”, with 3180 fluorescence intensity (a.u.); and “GCCGGCCGACGGGTGGGGAGGAGACCGACGGGGCGAGACACGGAGTCACCTAGTGCAG”, with 20700 fluorescence intensity (a.u.). As to “GGATACGTGCCATGTCACGGTGCTGTGGGTCCCACGTGGCCGGAGTCACCTAGTGCAG”, the binding signal is 21800 fluorescence intensity (a.u.). Turning to “CCCCTCGCCGGTCTGTTTGTGGGCTCTATCTAGCTCGGGGCGGAGTCACCTAGTGCAG”, the binding signal was 3690 fluorescence intensity (a.u.). Next, “ATTTGCTCTCGTCCATGGGTTAATTTCTGGATTATCACGACGGAGTCACCTAGTGCAG”: 3300 fluorescence intensity (a.u.); “CGAATAACCCGGAACTGCCTACCGACAGCAGCGGGCAGTGCGGAGTCACCTAGTGCAG”: 4360 fluorescence intensity (a.u.); “CGAGCTTGGGGTCGTGGTCATTGCTACCGTGGATGGCGAGCGGAGTCACCTAGTGCAG”: 5180 fluorescence intensity (a.u.).

Take “CTGTTGCGCGGTCACAGCTCACACGTCGGCGGCTTCGCTACGGAGTCACCTAGTGCAG”: the binding signal is 6240 fluorescence intensity (a.u.). Regarding “CTAGAAATGAGATTGCACTCATACCACGACACACGCACACCGGAGTCACCTAGTGCAG”, the binding signal was 4120 fluorescence intensity (a.u.). Consider “TCTACTAGCTTAAAAGCCAACTCATCTTCCTTCCGTCCACCGGAGTCACCTAGTGCAG”, for which the binding signal was 4720 fluorescence intensity (a.u.). Regarding “GCTCGGCCGGTTGCGGCGAGTTTGCACCACGACGGTGGGTCGGAGTCACCTAGTGCAG”, the binding signal was 3270 fluorescence intensity (a.u.).
